# Experimental data reported in PubChem BioAssay AID262 (DTP/NCI, 2004).
# The list shows only some results of the screen, not a fair sample: it gathers tests that were run many times, whatever their T/C, doses with no T/C, and many T/C values between a quarter and a half above the control. Other doses and runs of a compound stand elsewhere. T/C gives the treated animals as a percentage of the vehicle group. Schedules are NCI's codes, taken here to give the interval after Q, in days (D) or hours (H), and the number of doses after X. Some T/C values are followed by the survivors on the day toxicity was checked, most often the fifth; without a count, all were alive then. Some doses have a count of surviving animals in place of a T/C: the source holds a T/C of zero for them, seemingly a mark for toxic or unscored doses. Counts of survivors are from the toxicity check (mostly the fifth day) where no day follows; animals may have died later. Some entries hold several experiments; the results are listed from low to high. Starred links: 1 amine or outer side, 2 acyl side, 3 side chain; linkers in the order of their positions; H or OH if unused. Positions of bridges follow the written chain, without caps; N, C: chain ends. Non-standard residues stand in square brackets, D forms with d. Residues, ends and D or L forms follow the SMILES beside them. Chains are numbered I, II in the order given. Actinocin(9to1) = Cc1c2oc3c(C)ccc(C(=O)[*:1])c3nc-2c(C(=O)[*:2])c(N)c1=O; aThr = C[C@H](O)[C@H](N)C(=O)O; NMeV = CN[C@H](C(=O)O)C(C)C; Sar = CNCC(=O)O
# Tested on: LX-1 lung xenograft sc, nude mice, tumor weight
# Experiment: NCI In Vivo Anticancer Drug Screen. Data for tumor model Human Lung LX-1 Xenograft (subcutaneous) in NU/NU Swiss (nude) mice
# Conditions: T/C endpoint: optimum tumor weight change, higher T/C = larger tumour
# Method: The antitumor activity of compounds was measured in mice bearing transplantable tumors. Survival or tumor size were measured and the results are expressed as the measurement made in the treated group (T) divided by the measurement made in the vehicle treated control group (C). The tumor model used in this assay is Human Lung LX-1 Xenograft (subcutaneous) in NU/NU Swiss (nude) mice
# [1] = dose: 200.0 mg/kg/injection, schedule: Q04DX003 (ip), vehicle: Klucel (hydroxypropylcellulose) (HPC)
# [2] = dose: 400.0 mg/kg/injection, schedule: Q04DX003 (ip), vehicle: Klucel (hydroxypropylcellulose) (HPC)
# [3] = dose: 800.0 mg/kg/injection, schedule: Q04DX003 (ip), vehicle: saline
# [4] = dose: 1600.0 mg/kg/injection, schedule: Q04DX003 (ip), vehicle: suspension in saline
# [5] = dose: 400.0 mg/kg/injection, schedule: Q04DX003 (ip), vehicle: suspension in saline
# [6] = dose: 800.0 mg/kg/injection, schedule: Q04DX003 (ip), vehicle: suspension in saline
# [7] = dose: 400.0 mg/kg/injection, schedule: Q04DX003 (ip), vehicle: saline
compound,measurement,setting,value
CCN(C)N=Nc1ccc(C(N)=O)cc1,survivor count,[1],3 of 6 on day 36
same,survivor count,[2],0 of 6 on day 36
same,survivor count,"dose: 800.0 mg/kg/injection, schedule: Q04DX003 (ip), vehicle: Klucel (hydroxypropylcellulose) (HPC)",0 of 6 on day 36
CO[C@H]1C[C@](C)(O)Cc2cc3c(c(O)c21)C(=O)c1c(O)cc2c(c1C3=O)O[C@@H]1O[C@@]2(C)[C@H](O)[C@@H](N(C)C)[C@@H]1O,survivor count,"dose: 25.0 mg/kg/injection, schedule: Q04DX003 (ip), vehicle: other",3 of 5 on day 36
Cc1c(N)nc([C@H](CC(N)=O)NC[C@H](N)C(N)=O)nc1C(=O)N[C@H](C(=O)N[C@H](C)[C@@H](O)CC(=O)N[C@H](C(=O)NC(O[C@@H]1O[C@@H](C)[C@@H](N)[C@@H](O)[C@H]1O)C(O)c1nc(-c2nc(C(=O)NCCCCN)cs2)cs1)[C@@H](C)O)[C@@H](O[C@@H]1O[C@@H](CO)[C@@H](O)[C@H](O)[C@@H]1O[C@H]1O[C@H](CO)[C@@H](O)[C@H](OC(N)=O)[C@@H]1O)c1c[nH]cn1 (stereo partly drawn),survivor count,"dose: 4.0 mg/kg/injection, schedule: Q04DX003 (ip), vehicle: saline",3 of 5 on day 35
same,survivor count,"dose: 8.0 mg/kg/injection, schedule: Q04DX003 (ip), vehicle: saline",1 of 5 on day 35
same,survivor count,"dose: 16.0 mg/kg/injection, schedule: Q04DX003 (ip), vehicle: saline",2 of 5 on day 35
same,survivor count,"dose: 32.0 mg/kg/injection, schedule: Q04DX003 (ip), vehicle: saline",0 of 5 on day 35
CN(C)c1nc(N(C)C)nc(N(C)C)n1,T/C,"dose: 120.0 mg/kg/injection, schedule: Q07DX005 (ip), vehicle: Klucel (hydroxypropylcellulose) (HPC), evaluated on day 56",136 % of control
same,survivor count,"dose: 240.0 mg/kg/injection, schedule: Q01DX005 (ip), vehicle: Klucel (hydroxypropylcellulose) (HPC)",1 of 4
same,survivor count,"dose: 240.0 mg/kg/injection, schedule: Q04DX005 (ip), vehicle: Klucel (hydroxypropylcellulose) (HPC)",1 of 5 and 3 of 5
same,survivor count,"dose: 240.0 mg/kg/injection, schedule: Q07DX005 (ip), vehicle: Klucel (hydroxypropylcellulose) (HPC)",2 of 5
same,survivor count,"dose: 480.0 mg/kg/injection, schedule: Q07DX005 (ip), vehicle: Klucel (hydroxypropylcellulose) (HPC)",3 of 5
C=CC(=O)N1CN(C(=O)C=C)CN(C(=O)C=C)C1,survivor count,"dose: 12.0 mg/kg/injection, schedule: Q04DX003 (ip), vehicle: saline with Tween-80",3 of 5 on day 36
CC(C)CCCCCCCCCCCCC(=O)NCC(=O)NC1C(C)OC(Nc2ncnc3nc[nH]c23)C(O)C1O (stereo not drawn),survivor count,"dose: 12.5 mg/kg/injection, schedule: Q04DX003 (ip), vehicle: saline with Tween-80",1 of 5 on day 35
same,survivor count,"dose: 25.0 mg/kg/injection, schedule: Q04DX003 (ip), vehicle: saline with Tween-80",0 of 5 on day 35
O=C(O)CP(=O)(O)O,survivor count,"dose: 3200.0 mg/kg/injection, schedule: Q04DX003 (ip), vehicle: saline",0 of 5 on day 36
Cn1cnc([N+](=O)[O-])c1[Se]c1nc(N)nc2nc[nH]c12,survivor count,"dose: 200.0 mg/kg/injection, schedule: Q04DX003 (ip), vehicle: water",1 of 5 on day 36
CC[C@]1(O)C[C@H]2CN(CCc3c([nH]c4ccccc34)[C@@](C(=O)OC)(c3cc4c(cc3OC)N(C=O)[C@H]3[C@@](O)(C(=O)OC)[C@H](OC(C)=O)[C@]5(CC)C=CCN6CC[C@]43[C@@H]65)C2)C1,survivor count,"dose: 1.0 mg/kg/injection, schedule: Q04DX003 (ip), vehicle: saline",3 of 5 on day 41
same,survivor count,"dose: 2.0 mg/kg/injection, schedule: Q04DX003 (ip), vehicle: saline",1 of 5 on day 41
CNC=O,survivor count,[3],3 of 5 on day 40
same,survivor count,"dose: 1600.0 mg/kg/injection, schedule: Q04DX003 (ip), vehicle: saline",3 of 5 on day 34
same,survivor count,[4],1 of 5 on day 34 and 3 of 5 on day 36
Nc1ccc(Cl)cc1N,T/C,"dose: 50.0 mg/kg/injection, schedule: Q04DX003 (ip), vehicle: saline with Tween-80, evaluated on day 33",130 % of control [4 of 5 alive on day 35]
same,T/C,"dose: 200.0 mg/kg/injection, schedule: Q04DX003 (ip), vehicle: saline with Tween-80, evaluated on day 33",125 % of control
"Cc1c2oc3c(C)ccc(C(=O)N[C@@H]4C(=O)N[C@H](C(C)C)C(=O)N5CCC[C@H]5C(=O)N(C)CC(=O)N(C)[C@@H](C(C)C)C(=O)O[C@H]4C)c3nc-2c(C(=O)N[C@@H]2C(=O)N[C@H](C(C)C)C(=O)N3CCC[C@H]3C(=O)N(C)CC(=O)N(C)[C@@H](C(C)C)C(=O)O[C@H]2C)c(N)c1=O (I: [aThr][dV]P[Sar][NMeV] / II: [aThr][dV]P[Sar][NMeV]; ester I:1-I:C, II:1-II:C; linker I:N-II:N via Actinocin(9to1))",T/C,"dose: 75.0 micrograms/kg/injection, schedule: Q04DX003 (ip), vehicle: saline, evaluated on day 33",133 % of control
Nc1nc(N)c2cc(CNc3ccc(C(=O)NC(CC(=O)O)CC(=O)O)cc3)ccc2n1,survivor count,"dose: 50.0 mg/kg/injection, schedule: Q04DX003 (ip), vehicle: Klucel (hydroxypropylcellulose) (HPC)",3 of 5 on day 36
same,survivor count,"dose: 100.0 mg/kg/injection, schedule: Q04DX003 (ip), vehicle: Klucel (hydroxypropylcellulose) (HPC)",2 of 5 on day 36
same,survivor count,[1],2 of 5 on day 36
same,survivor count,[2],0 of 5 on day 36
CCC1=C[C@H]2CN(CCc3c([nH]c4ccccc34)[C@@](C(=O)OC)(c3cc4c(cc3OC)N(C)[C@H]3[C@@](O)(C(=O)NC)[C@H](OC(C)=O)[C@]5(CC)C=CCN6CC[C@]43[C@@H]65)C2)C1,survivor count,"dose: 2.0 mg/kg/injection, schedule: Q04DX003 (ip), vehicle: water",0 of 5 on day 41
O=CC(S)CO (stereo not drawn),T/C,"dose: 100.0 mg/kg/injection, schedule: Q04DX003 (ip), vehicle: suspension in saline, evaluated on day 32",128 % of control
same,survivor count,[5],3 of 5 on day 34
same,survivor count,[6],1 of 5 on day 34
O=P1(NCCCl)OCCCN1CCCl (stereo not drawn),survivor count,"dose: 12.5 mg/kg/injection, schedule: Q04DX003 (ip), vehicle: saline",3 of 5 on day 36
same,survivor count,"dose: 100.0 mg/kg/injection, schedule: Q04DX003 (ip), vehicle: saline",1 of 5 on day 36
same,survivor count,"dose: 200.0 mg/kg/injection, schedule: Q04DX003 (ip), vehicle: saline",0 of 5 on day 36
same,survivor count,[7],0 of 5 on day 36
same,survivor count,[3],0 of 5 on day 36
[N-]=[N+]=CC(=O)CCC(N)C(=O)O (stereo not drawn),survivor count,"dose: 75.0 mg/kg/injection, schedule: Q04DX003 (ip), vehicle: saline",3 of 5 on day 35
same,survivor count,"dose: 150.0 mg/kg/injection, schedule: Q04DX003 (ip), vehicle: saline",0 of 5 on day 35
same,survivor count,"dose: 300.0 mg/kg/injection, schedule: Q04DX003 (ip), vehicle: saline",0 of 5 on day 35
CN(N=O)C(=O)N[C@@H](C=O)[C@@H](O)[C@H](O)[C@H](O)CO,survivor count,[7],0 of 5 on day 36
same,survivor count,[3],0 of 5 on day 36
CC(=O)Oc1ccc[nH]c1=O,survivor count,"dose: 200.0 mg/kg/injection, schedule: Q04DX003 (ip), vehicle: saline with Tween-80",3 of 5 on day 35 and 3 of 5 on day 36
same,survivor count,"dose: 1600.0 mg/kg/injection, schedule: Q04DX003 (ip), vehicle: saline with Tween-80",2 of 5 on day 35
COC1C(O)CC(OC2CC(OC3CC(O[C@@H]4C(=O)c5c(cc6cc(OC7CC(OC8CC(O)C(O)C(C)O8)C(O)C(C)O7)c(C)c(O)c6c5O)C[C@H]4[C@H](OC)C(=O)[C@@H](O)[C@@H](C)O)OC(C)C3O)OC(C)C2O)OC1C (stereo partly drawn),survivor count,"dose: 3.0 mg/kg/injection, schedule: Q04DX003 (ip), vehicle: saline",2 of 5 on day 38 and 3 of 5 on day 36
same,survivor count,"dose: 6.0 mg/kg/injection, schedule: Q04DX003 (ip), vehicle: saline",0 of 5 on day 36 and 2 of 5 on day 38
same,survivor count,"dose: 12.0 mg/kg/injection, schedule: Q04DX003 (ip), vehicle: saline",0 of 5 on day 36
CC(C)=CCNc1ncnc2c1ncn2C1OC(CO)C(O)C1O (stereo not drawn),survivor count,[5],3 of 5 on day 36
same,survivor count,[6],1 of 5 on day 36
same,survivor count,[4],1 of 5 on day 36
COc1cccc2c1C(=O)c1c(O)c3c(c(O)c1C2=O)C[C@@](O)(C(=O)CO)C[C@@H]3OC1CC(N)C(O)C(C)O1 (stereo partly drawn),survivor count,"dose: 8.0 mg/kg/injection, schedule: Q04DX003 (ip), vehicle: water",0 of 5 on day 35
